# Test results: publication doi:10.1101/2023.03.27.534109
# Protein sequences, listed by entry. Tags and fused reporters are not part of them.
# UniProt Q13568: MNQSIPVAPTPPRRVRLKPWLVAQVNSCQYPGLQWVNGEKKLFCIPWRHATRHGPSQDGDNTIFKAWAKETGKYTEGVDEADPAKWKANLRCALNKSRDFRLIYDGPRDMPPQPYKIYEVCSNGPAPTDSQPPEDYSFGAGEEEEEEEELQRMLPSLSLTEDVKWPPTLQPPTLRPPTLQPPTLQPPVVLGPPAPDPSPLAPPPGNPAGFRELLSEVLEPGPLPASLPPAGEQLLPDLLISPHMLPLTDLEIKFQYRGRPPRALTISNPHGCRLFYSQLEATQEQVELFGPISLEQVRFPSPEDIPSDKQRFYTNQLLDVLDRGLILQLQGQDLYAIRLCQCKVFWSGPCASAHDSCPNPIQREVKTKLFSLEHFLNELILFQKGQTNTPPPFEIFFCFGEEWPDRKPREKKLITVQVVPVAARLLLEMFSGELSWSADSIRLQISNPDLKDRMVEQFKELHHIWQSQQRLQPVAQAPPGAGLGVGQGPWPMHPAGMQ
# Results are given in words; binding and its absence hold for the method and conditions named. Some binding calls cover weakened binding; strength is not graded here.
# Target: endogenous IRF5 of THP1 cells stimulated with a TLR7/8 agonist (human (endogenous in THP1)) (UniProt Q13568)
# Assay: native gel or EMSA
substance,measurement,value
endogenous IRF5 of THP1 cells stimulated with a TLR7/8 agonist (from UniProt Q13568 1-498),binding,binds
